## Library screen at single concentrations

The values are deposited in ChEMBL (CHEMBL3988442, “University of Dundee, Small-Polar-MMV Screening Library” (2021)).

A: 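Whole-parasite assay of Trypanosoma brucei over 72 hours; the read-out is not stated. Concentration: 30 µM. The record gives no direction; compounds that gave an IC50 in retests scored well above the rest, so higher reads as stronger inhibition. Values scatter widely below zero; nearly all retest evidence comes from the higher of the two concentrations used. Of about 64,000 compounds tested this way, about 940 (1.5%) reached 50% or more in at least one test.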
B: 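Cell assay of Leishmania donovani living inside macrophages; the read-out is not stated. Concentration: 30 µM. Direction is inferred from retests: higher values go with stronger inhibition. Of about 69,000 compounds tested this way, about 1,000 (1.5%) reached 50% or more in at least one test.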

The filed quantity is “Percent Effect” (%). The controls that fix the scale are not given in the record; negative values are as filed. The compounds are a random part of those screened.

| structure | A | B |
|---|---|---|
| `O=C(O)C(F)(F)F.[H][C@@]12CCN(c3nnc(C)s3)[C@]1([H])CC[C@@H](c1nc(C)no1)O2` | -92.4% | 50.59% |
| `COc1ccccc1C(C(=O)O)N1CCCN(C2CCCC2)CC1` (stereo not shown) | -17.37% | 4.434% |
| `Cc1ncsc1CCCNC(=O)C1CC2(CCNCC2)CN1C` (stereo not shown) | -7.856% | -0.4281% |
| `N#Cc1ccnc(N2CCN(CC(O)c3ccc(F)cc3F)CC2)c1` (stereo not shown) | -13.65% | 14.83% |
| `Cn1ncnc1CNC1CCc2cc(Cl)ccc21` (stereo not shown) | 3.302% | -9.667% |
| `Cc1cc(C)cc(-c2cc(C3CCOC3)c(C#N)c(N)n2)c1` (stereo not shown) | -30.46% | 0.6708% |
| `O=C(O)C(F)(F)F.O=C(c1ccncc1)N1CCc2ncnc(C3CC3)c2CC1` | -28.24% | 40.16% |
| `Cc1cc(C)cc(C(C)NC(=O)c2ccc(CS(C)(=O)=O)o2)c1` (stereo not shown) | 5.073% | 26.32% |
| `O=C(O)C(F)(F)F.[H][C@@]12COC[C@]1([H])[C@@H](OCC(=O)N(C)C)CN2Cc1cccc(C#N)c1` | -14.68% | -29.15% |
| `Cc1ccn(CCNC(=O)C2(C)CC(c3ccccc3)=NO2)n1` (stereo not shown) | 6.78% | 16.01% |
| `NC(=O)c1ccc(CN2CCCC(O)C2)cc1` (stereo not shown) | 5.429% | 15.85% |
| `CN(C)C(=O)NC1COC2(CCN(C(=O)Nc3ccccc3)CC2)C1` (stereo not shown) | -15.86% | -10.63% |
| `CS(=O)(=O)NCC1CCCCN1C(=O)c1ccc(Br)s1` (stereo not shown) | 3.743% | 1.43% |
| `Cc1cnn(CC2CN(CC(=O)Nc3ccncc3)CCO2)c1` (stereo not shown) | -2.111% | 24.31% |
| `CCOC1COC2(CCN(Cc3cccc(F)c3)CC2)C1.O=C(O)C(F)(F)F` (stereo not shown) | -7.589% | 37.88% |
| `CN(CCc1ccncc1)C(=O)C1CSCN1C(=O)C(C)(C)C` (stereo not shown) | -44.4% | -9.789% |
| `[H][C@@]12CN(C(=O)C3CCOC3)C[C@]1([H])C(=O)N(Cc1cccc(C)c1)C2` (stereo partly shown) | -0.4052% | 15.59% |
| `CCCc1ccc(C(=O)N2CCc3c(nc(N(C)C)[nH]c3=O)C2)cc1` | -3.581% | -5.405% |
| `CCCc1noc(CCC(=O)N2CCCC(c3ccn[nH]3)C2)n1` (stereo not shown) | 1.722% | 20.15% |
| `CC(C)c1nnc(NC(=O)NCc2cccnc2NCCN(C)C)s1` | -52.45% | -1.023% |
| `COc1ccsc1C(=O)N1CCCC(n2nc(C)nc2C)C1` (stereo not shown) | -35.11% | 10.04% |
| `O=C(O)C(F)(F)F.O=C(O)c1c(NC2CCC2)ncc2c1CCN(C1CCOC1)C2` (stereo not shown) | -42.96% | 4.276% |
| `CN1CCCC(Cc2ccnc3ccncc23)CC1` (stereo not shown) | -38.63% | -10.81% |
| `CCC(C)(C)NC(=O)c1ccc(NC(=O)NCc2cc(C)on2)cc1` | -37.61% | 4.178% |
| `Cc1cccc(Cc2cc(C)nc(C3CCCNC3)c2)c1` (stereo not shown) | 100.3% | 59.44% |
| `COCC(=O)N1CCN(Cc2cccnc2)c2ncccc2C1.O=C(O)C(F)(F)F.O=C(O)C(F)(F)F` | -7.311% | -0.07987% |
| `CN1CCCC1CNC(=O)CCCOc1ccc(Br)cc1` (stereo not shown) | 28.43% | 15.04% |
| `[H][C@@]12CS(=O)(=O)C[C@]1([H])N(C(=O)c1ccnn1C)CCN2C(=O)C1CC1` | 3.76% | 25.11% |
| `[H][C@@]12CN(c3nc(C)cnc3C)C[C@]1([H])N(C1CCCC1)C(=O)O2` | -27.95% | -34.4% |
| `CN1CCC(N2C[C@H](O)C[C@H]2c2nc(Cc3ccccc3)no2)CC1` | -16.42% | -89.11% |
| `O=C(O)C(F)(F)F.O=C(O)C(F)(F)F.c1cncc(CN2Cc3nccn3CC(Cn3cccn3)C2)c1` (stereo not shown) | -81.67% | 6.445% |
| `COC(=O)c1ccc(CN2CCC(c3n[nH]c(C)n3)CC2)s1` | -13.97% | 27.39% |
| `Cc1ccc(C(=O)Nc2cc(C(C)C)n[nH]2)cn1` | 54.96% | -3.681% |
| `Cc1nc(-c2ccccc2)sc1CSCCC(N)=O` | -7.075% | -1.229% |
| `Cc1ccc2oc(C(=O)N3CCc4nnc(N(C)C)cc4C3)cc2n1` | 4.752% | 6.083% |
| `Cc1cccc(N(CCC(N)=O)CC(=O)NC2CCCC2)c1` | 15.95% | 12.3% |
| `Cn1cc(-c2nc3c(cc2C(=O)O)CCN(C(=O)C2CC2)CC3)cn1.O=C(O)C(F)(F)F` | -58.1% | 6.246% |
| `O=C(NC1CC(=O)N(C2Cc3ccccc3C2)C1)c1ccsc1` (stereo not shown) | -8.942% | 17.26% |
| `CC(NC(=O)c1ccc(C(N)=O)cc1)c1cccc(N2CCOC2=O)c1` (stereo not shown) | -55.68% | 14.02% |
| `Cc1cnc(-c2nc(NC3CC3)ncc2-c2cc(C)no2)cn1` | -11.24% | 10.26% |

3 of the entries, repeated:

| structure | A | B |
|---|---|---|
| `Cc1cccc(N(CCC(N)=O)CC(=O)NC2CCCC2)c1` | 15.95% | 12.3% |
| `CS(=O)(=O)NCC1CCCCN1C(=O)c1ccc(Br)s1` (stereo not shown) | 3.743% | 1.43% |
| `CC(NC(=O)c1ccc(C(N)=O)cc1)c1cccc(N2CCOC2=O)c1` (stereo not shown) | -55.68% | 14.02% |